# Screening data, single-dose tests

Amino acid sequences for entries named in this document (tags omitted). Residues count along the entry.
UniProt Q8IDJ8, 1-583: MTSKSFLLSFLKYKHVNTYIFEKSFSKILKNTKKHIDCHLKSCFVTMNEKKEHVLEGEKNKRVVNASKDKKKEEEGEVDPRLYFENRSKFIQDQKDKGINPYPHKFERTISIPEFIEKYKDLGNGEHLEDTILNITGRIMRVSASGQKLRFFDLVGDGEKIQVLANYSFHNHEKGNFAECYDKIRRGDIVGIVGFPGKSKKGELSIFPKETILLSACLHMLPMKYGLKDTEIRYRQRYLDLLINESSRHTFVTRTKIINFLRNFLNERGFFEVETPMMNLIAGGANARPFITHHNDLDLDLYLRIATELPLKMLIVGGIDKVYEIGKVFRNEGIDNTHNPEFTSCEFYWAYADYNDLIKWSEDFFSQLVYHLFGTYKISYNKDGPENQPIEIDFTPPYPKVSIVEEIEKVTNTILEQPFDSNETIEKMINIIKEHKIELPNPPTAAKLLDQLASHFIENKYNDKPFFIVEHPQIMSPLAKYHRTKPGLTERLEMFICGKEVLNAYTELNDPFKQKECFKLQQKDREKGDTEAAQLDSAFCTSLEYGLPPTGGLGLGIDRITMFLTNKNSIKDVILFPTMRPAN

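Enzyme assay of the cytosolic lysyl-tRNA synthetase in 384-well plates, read by luminescence. Target: Lysine-tRNA ligase, Plasmodium falciparum 3D7 (UniProt Q8IDJ8). Compounds at 30 µM. Higher reads as stronger inhibition, judged from the few compounds that gave an IC50. About 69,000 compounds were tested under these conditions; 0.071% (about 49) showed 50% or more at least once.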

Each number is a percent effect as filed. How 0% and 100% were set is not recorded. Most values in the screen are low, and negative values occur. This is an unselected part of the compounds tested.

Compound,effect
Cn1nc(CNC(=O)C2COc3ccccc3O2)cc1C1CC1 (centres unmarked),-4.731
Cc1cc(CN(Cc2ccccc2)C(C)CN2CCOCC2)no1 (centres unmarked),-0.6822
CC(=O)NC1CCCc2c1[nH]c1ccc(F)cc21 (centres unmarked),1.132
CN1CCCC(C(=O)N2CCC(Oc3ncccn3)CC2)C1 (centres unmarked),0.2829
CCn1c(CN2CCCC2)nnc1C1CCN(Cc2cc(C)no2)CC1,10.33
O=C1COC2(CCN(S(=O)(=O)C3CC3)CC2)CN1c1ccsc1,3.209
Cc1cc(C)n(CCC2CC(=O)Nc3cc(O)c(C)cc32)n1 (centres unmarked),-1.308
CS(=O)(=O)N1CCOC2(CCCN(c3ncc(F)cn3)C2)C1 (centres unmarked),1.566
Cc1cnn(CC2CN(CC(=O)N(C)Cc3cccs3)CCO2)c1 (centres unmarked),2.357
O=C(c1cc(C2CC2)[nH]n1)N1CCN(Cc2ccsc2)CC1,-2.566
Cn1cc(CN2CC[C@H]3CO[C@H](CNc4ncccn4)[C@H]3C2)cn1,-3.488
CN(Cc1nc2c(cnn2C)c(=O)[nH]1)Cc1ccc(F)cc1F,5.603
Cc1oc(-c2ccccc2)nc1CN1CCC(c2ccnn2C)CC1,4.443
O=C(CCSc1ccc(F)cc1)NS(=O)(=O)c1ccc2c(c1)OCCO2,6.705
CCOCCOC(C)C(=O)Nc1nccn1Cc1ccccc1 (centres unmarked),2.15
N[C@H]1CN(C(=O)c2cnc3cc(Cl)ccc3c2O)C[C@@H]1C1CC1,1.673
COc1nn(C)c2c1CCCN(S(=O)(=O)c1cccc(C)c1)C2,0.6641
CC(C)c1nc(C(=O)N2CCOCC2CC(=O)c2ccco2)cs1 (centres unmarked),4.733
CCOc1ccc(C(=O)N(C)Cc2nccn2CC(F)(F)F)cc1,4.098
N#Cc1ccc(C(=O)N2CC[C@H]3[C@H]2CCN3CC2CCOCC2)cc1,-5.381
COc1ccc(C2=CCN(C(=O)C3CCS(=O)(=O)C3)CC2)cc1 (centres unmarked),-1.884
O=C(NCC[S+]([O-])Cc1ccccc1)c1ccc2[nH]c(=O)[nH]c2c1 (centres unmarked),2.019
CC(C)NC(=O)C[C@@H]1CCNC[C@@H]1Cc1cc(-c2ccccn2)on1,4.615
Cc1cc(CN2CCN(C(=O)CCCc3nc(C(C)C)no3)CC2)on1,0.5404
COc1cnc(N2CCN(C)CC2)nc1-c1ccnn1C,6.236
CN(c1ccc(CNC(=O)c2ccc(O)nc2)cc1)C1CCCCC1,3.321
COCCC(=O)N1Cc2[nH]nc(COc3cccnc3)c2C1,4.945
COCCN(Cc1ccncc1)C(=O)C1COc2c(cccc2OC)C1 (centres unmarked),8.226
COc1ncccc1CNC(=O)c1ccc(C)[nH]c1=O,-1.974
O=C(NC[C@H]1OC[C@@H](NC2COC2)[C@@H]1O)c1ccccc1,6.28
COC(=O)[C@H]1CN(C(=O)c2cscn2)C[C@@H]1c1ccc(F)cc1,3.236
Cc1ccc(NC2CCN(C(=O)c3ccc(Cl)o3)CC2)nn1,-3.02
Cc1noc(-c2cccnc2N(C)Cc2cc(C)on2)n1,1.397
O=C1CC(NS(=O)(=O)N2CCOCC2)CN1Cc1ccc(F)cc1 (centres unmarked),4.031
CSCc1ccc(CNC2CCCN(c3ccc(C)nn3)C2)o1 (centres unmarked),-0.0134
Cc1ccc(CN2Cc3ccnn3CC(COCc3cccnc3)C2)o1 (centres unmarked),2.558
CN1CCC(Cc2noc(-c3cccc4c3OCC4)n2)CC1,-16.82
Cc1ccc(-c2ccc(C(=O)NCC(N)=O)c(F)c2)cc1,2.221
Cc1ccc(NC(=O)NCCCn2nc3ccccn3c2=O)cc1,-0.854
Cc1nc(CN2C(=O)CC[C@@H]3[C@H]2CCN3C2CCOCC2)cs1,3.201
Cc1cc(C(=O)NC2CCc3c(ccc(=O)n3CC(C)C)C2)no1 (centres unmarked),4.672
Cc1cc(NC(=O)CCNC(C)(C)c2nc(C)c(C)s2)no1,2.993
N#Cc1ccc(NC(=O)N2CCCCC2CN2CCCC2=O)cc1 (centres unmarked),1.351
CCCc1n[nH]c(C2CN(C(=O)CCc3cscn3)CCO2)n1 (centres unmarked),2.255
Cc1nc(C)n(C2CCCN(C(=O)CCc3ccncc3)C2)n1 (centres unmarked),4.444
CC(C)NC(=O)NC(C)c1nc(-c2ccccc2)cs1 (centres unmarked),3.527
Cc1ccc([C@@H]2CN(C(=O)c3cc(C)no3)C[C@H]2NC(=O)C2CC2)cc1,16.08
CN(C)CCN(C(=O)Cc1ccc2c(c1)OCCO2)C1CCN(C)CC1,2.792
Cc1cnc(C(=O)N2CCc3ncnc(C)c3CC2)cn1,4.859
COCCNC(=O)Cn1cc(OCc2ccccc2F)c(=O)cc1CO,-0.4735
C[C@H](c1ccc(F)cc1)n1c(C2CCC2)n[nH]c1=O,4.434
O=C1CC[C@H]2CN(C3CCOCC3)CC[C@H]2N1CCC1=CCCCC1,6.607
CNc1ncc2c(n1)CN(CCc1ccc(C)cc1)C2=O,12.57
Cc1nnsc1C(=O)N1C[C@H]2CC[C@@H]1CN(c1cnccn1)C2,0.9826
CCS(=O)(=O)N1CCC2(CC1)CC[C@@]1(C(=O)N(C)C)CN(C(C)=O)C[C@@H]21,-0.6085
CN1CCOC(C(=O)Nc2nc(-c3ccc4c(c3)CCC4)n[nH]2)C1 (centres unmarked),0.9815
CCOC(=O)C1CCCCN1Cc1c[nH]nc1-c1ccc(F)cc1F (centres unmarked),-0.2406
CCCNC(=O)C(C)Nc1ccc(COCC)cc1 (centres unmarked),4.966
COc1cccc(C(O)CN2CCN(C(=O)CCC(C)C)CC2)c1 (centres unmarked),0.8427
c1ccc(Oc2ncccc2CNCc2ccccn2)cc1,4.629
O=C(CCc1ccc(C(F)(F)F)cc1)N1CCCS1(=O)=O,5.936
CN1CC(=O)N(c2ccsc2)CC12CCN(C(=O)N1CCCC1)C2 (centres unmarked),8.033
O=C(CCn1ncc2c(Cl)cccc21)NCCCn1cccn1,3.691
COc1ccc(CCC2CCCCN2)cc1OC (centres unmarked),-6.249
COc1ccc(N2CCCN(CC(=O)N3CCNC(=O)C3)CC2)cc1,2.329
C[S+]([O-])CCNC(=O)Nc1cc(F)ccc1-n1cccn1 (centres unmarked),2.672
COc1ccc(C2SCC(=O)Nc3ccsc32)cc1 (centres unmarked),-3.137
CN(C)S(=O)(=O)N1CCCC(c2cccc(Cc3ccc(Cl)cc3)n2)C1 (centres unmarked),0.6283
Cc1nc(CCCNC(=O)Nc2cc(F)cc(F)c2)n[nH]1,-0.8068
CC1c2ncc(COCC3CC3)n2CCN1C(=O)c1ccnn1C (centres unmarked),1.808
CC(=O)c1c(C)nn(CC(=O)N2CCCC2c2ccc(C(N)=O)s2)c1C (centres unmarked),3.907
CN1CCN(C(=O)[C@H]2C[C@@H]3CN(c4ncc(F)cn4)C[C@@H]3N2C)CC1,2.084
O=c1[nH]c(N2CC(O)C2)nc2c1cnn2-c1ccccc1,1.238

From ChEMBL document CHEMBL3988442, “University of Dundee, Small-Polar-MMV Screening Library” (2021).